Results on one substance are retold here after PMC8249616.

Protein sequences, listed by entry. Tags and fused reporters are not part of them. Residues count along the entry.
UniProt P08581, residues 25-927: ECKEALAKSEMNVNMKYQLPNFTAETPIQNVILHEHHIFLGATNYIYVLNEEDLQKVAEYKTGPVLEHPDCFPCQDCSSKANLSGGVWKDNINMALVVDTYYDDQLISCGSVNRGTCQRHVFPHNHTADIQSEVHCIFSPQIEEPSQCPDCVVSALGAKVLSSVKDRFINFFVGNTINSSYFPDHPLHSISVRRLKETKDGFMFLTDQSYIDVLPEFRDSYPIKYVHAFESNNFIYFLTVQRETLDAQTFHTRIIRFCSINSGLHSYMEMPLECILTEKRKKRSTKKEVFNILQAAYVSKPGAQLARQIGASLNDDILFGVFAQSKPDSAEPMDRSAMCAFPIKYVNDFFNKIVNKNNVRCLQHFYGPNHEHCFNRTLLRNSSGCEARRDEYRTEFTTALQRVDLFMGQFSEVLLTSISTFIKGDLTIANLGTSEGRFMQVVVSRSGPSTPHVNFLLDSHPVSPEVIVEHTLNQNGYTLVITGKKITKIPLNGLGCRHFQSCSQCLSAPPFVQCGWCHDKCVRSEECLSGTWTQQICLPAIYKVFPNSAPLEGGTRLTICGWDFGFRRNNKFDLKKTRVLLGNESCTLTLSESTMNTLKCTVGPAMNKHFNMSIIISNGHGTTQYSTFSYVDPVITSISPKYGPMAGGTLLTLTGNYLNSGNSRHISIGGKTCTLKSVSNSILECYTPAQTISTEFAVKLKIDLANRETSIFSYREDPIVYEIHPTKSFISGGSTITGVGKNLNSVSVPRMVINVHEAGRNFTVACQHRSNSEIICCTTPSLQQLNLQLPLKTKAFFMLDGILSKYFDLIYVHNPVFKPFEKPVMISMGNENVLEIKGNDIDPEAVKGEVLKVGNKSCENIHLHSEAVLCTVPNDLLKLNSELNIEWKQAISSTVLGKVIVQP
UniProt P14210, residues 32-728: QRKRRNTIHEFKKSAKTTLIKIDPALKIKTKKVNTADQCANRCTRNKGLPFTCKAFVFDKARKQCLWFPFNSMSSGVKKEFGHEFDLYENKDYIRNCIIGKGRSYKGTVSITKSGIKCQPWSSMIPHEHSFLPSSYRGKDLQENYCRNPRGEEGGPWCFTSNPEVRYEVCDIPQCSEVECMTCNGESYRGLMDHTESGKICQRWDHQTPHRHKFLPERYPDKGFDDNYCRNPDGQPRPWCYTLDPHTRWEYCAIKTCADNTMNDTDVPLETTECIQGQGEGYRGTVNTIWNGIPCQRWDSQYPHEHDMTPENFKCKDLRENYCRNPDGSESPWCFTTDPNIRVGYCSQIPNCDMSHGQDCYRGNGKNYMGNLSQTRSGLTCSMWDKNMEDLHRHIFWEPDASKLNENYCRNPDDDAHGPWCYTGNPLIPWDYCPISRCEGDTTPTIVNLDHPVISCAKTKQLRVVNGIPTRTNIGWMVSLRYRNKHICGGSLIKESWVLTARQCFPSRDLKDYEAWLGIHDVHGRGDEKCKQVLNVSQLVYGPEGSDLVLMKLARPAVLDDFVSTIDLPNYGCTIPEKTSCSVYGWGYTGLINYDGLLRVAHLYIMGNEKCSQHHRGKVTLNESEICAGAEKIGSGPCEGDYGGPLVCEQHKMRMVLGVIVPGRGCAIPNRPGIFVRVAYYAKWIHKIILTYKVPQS

Results are given in words; binding and its absence hold for the method and conditions named. Some binding calls cover weakened binding; strength is not graded here.

Assay [1] concerns the target c-MET extracellular domain (residues 1-927), tags cleaved (human) (UniProt P08581). The assay can be described thus: SEC; c-MET and HGF in the absence of heparin; both purified.
Assay [2] concerns the target full-length human hepatocyte growth factor (HGF), wild type (human) (UniProt P14210). The experiment in a line: cryo-EM structure; c-MET927-LZ mixed with HGF and heparin (Tinzaparin sodium) 1:1:4, complex isolated by SEC in 20 mM Hepes pH 7.5, 100 mM NaCl; 2 mM fluorinated Fos-Choline-8 added before freezing; both purified. A general note: SEC sorts molecules by how far they enter the pores of the column.

Take “full-length human hepatocyte growth factor (HGF), wild type (from UniProt P14210 32-728) (ligand)”: the binding entry is on record as “no binding (condition: in the absence of heparin)” in assay [1] and “binds weakly” in assay [2].
